Results on one molecule are retold here after article PMC6368580.

Protein sequences, listed by entry. Tags and fused reporters are not part of them. Lines headed by an entry give the natural chain unless they say otherwise; changes in a name come on top. Chains listed by the source or under a name are the forms on record and can include a tag or linker.
HA-CIC (Q96RK0, form named): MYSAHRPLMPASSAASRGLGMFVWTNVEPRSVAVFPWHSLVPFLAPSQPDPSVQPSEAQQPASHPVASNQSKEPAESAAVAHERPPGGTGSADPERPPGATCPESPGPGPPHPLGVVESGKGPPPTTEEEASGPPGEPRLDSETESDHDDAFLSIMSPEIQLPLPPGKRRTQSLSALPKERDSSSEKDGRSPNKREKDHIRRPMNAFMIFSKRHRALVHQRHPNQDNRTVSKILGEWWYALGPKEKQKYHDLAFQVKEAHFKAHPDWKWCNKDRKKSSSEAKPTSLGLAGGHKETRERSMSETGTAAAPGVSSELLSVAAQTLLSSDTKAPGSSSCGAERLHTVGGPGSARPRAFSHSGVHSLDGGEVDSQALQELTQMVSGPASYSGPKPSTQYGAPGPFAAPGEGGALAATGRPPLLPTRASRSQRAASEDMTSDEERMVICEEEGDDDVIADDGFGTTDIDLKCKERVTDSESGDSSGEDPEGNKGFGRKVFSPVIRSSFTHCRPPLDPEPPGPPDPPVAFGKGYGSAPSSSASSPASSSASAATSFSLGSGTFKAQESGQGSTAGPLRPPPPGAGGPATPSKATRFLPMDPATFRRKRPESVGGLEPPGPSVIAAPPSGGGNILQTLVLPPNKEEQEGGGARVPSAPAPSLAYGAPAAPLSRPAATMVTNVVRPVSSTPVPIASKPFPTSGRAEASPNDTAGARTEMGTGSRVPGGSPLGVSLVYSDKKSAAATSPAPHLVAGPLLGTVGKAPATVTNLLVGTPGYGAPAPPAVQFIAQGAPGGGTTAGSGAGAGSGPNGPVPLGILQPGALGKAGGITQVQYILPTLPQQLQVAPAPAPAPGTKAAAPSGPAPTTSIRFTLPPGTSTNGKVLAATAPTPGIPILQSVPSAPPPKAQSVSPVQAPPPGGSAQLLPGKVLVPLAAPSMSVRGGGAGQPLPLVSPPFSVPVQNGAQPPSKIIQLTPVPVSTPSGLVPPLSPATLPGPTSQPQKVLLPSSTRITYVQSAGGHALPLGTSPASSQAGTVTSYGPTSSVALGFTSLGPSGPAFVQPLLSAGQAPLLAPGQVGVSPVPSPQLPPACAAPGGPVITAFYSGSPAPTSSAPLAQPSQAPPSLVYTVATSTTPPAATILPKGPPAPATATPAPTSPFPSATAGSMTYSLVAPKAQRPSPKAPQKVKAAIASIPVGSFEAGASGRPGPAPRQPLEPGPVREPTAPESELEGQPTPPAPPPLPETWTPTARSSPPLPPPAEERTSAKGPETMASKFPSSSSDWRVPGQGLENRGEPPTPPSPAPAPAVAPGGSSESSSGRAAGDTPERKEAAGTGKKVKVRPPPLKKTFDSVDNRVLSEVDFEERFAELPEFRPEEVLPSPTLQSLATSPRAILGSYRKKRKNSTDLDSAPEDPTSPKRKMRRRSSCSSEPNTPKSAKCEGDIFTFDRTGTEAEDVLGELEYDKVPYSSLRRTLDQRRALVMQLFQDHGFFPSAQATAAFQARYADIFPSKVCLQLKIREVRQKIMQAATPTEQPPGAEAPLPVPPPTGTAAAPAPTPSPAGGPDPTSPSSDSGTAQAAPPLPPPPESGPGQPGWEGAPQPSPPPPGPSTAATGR

In this assay the target is HA-CIC (capicua, CIC-S isoform, wild type) (UniProt Q96RK0). Nature of the assay: affinity purification with mass spectrometry; mass spectrometry on HA-immunoprecipitated material from MG132-treated HA-CIC transfected U87 cells.

Results are given in words; binding and its absence hold for the method and conditions named. Binding seen in cells or lysates may run through a third protein. A yes stands for co-enrichment or nearness to the bait. Other partners may have been found.

B1: PRAJA1 (PJA1), endogenous in U87 cells (enzyme, UniProt Q8NG27 1-643)
chain: MGQESSKPVWPNPTGGYQSNTGRRYGRRHAYVSFRPPTSQRERIASQRKTNSEVPMHRSAPSQTTKRSRSPFSTTRRSWDDSESSGTNLNIDNEDYSRYPPREYRASGSRRGMAYGHIDSYGADDSEEEGAGPVERPPVRGKTGKFKDDKLYDPEKGARSLAGPPPHFSSFSRDVREERDKLDPVPAARCSASRADFLPQSSVASQSSSEGKLATKGDSSERERREQNLPARPSRAPVSICGGGENTSKSAEEPVVRPKIRNLASPNCVKPKIFFDTDDDDDMPHSTSRWRDTANDNEGHSDGLARRGRGESSSGYPEPKYPEDKREARSDQVKPEKVPRRRRTMADPDFWTHSDDYYKYCDEDSDSDKEWIAALRRKYRSREQTLSSSGESWETLPGKEEREPPQAKVSASTGTSPGPGASASAGAGAGASAGSNGSNYLEEVREPSLQEEQASLEEGEIPWLQYHENDSSSEGDNDSGHELMQPGVFMLDGNNNLEDDSSVSEDLEVDWSLFDGFADGLGVAEAISYVDPQFLTYMALEERLAQAMETALAHLESLAVDVEVANPPASKESIDALPEILVTEDHGAVGQEMCCPICCSEYVKGEVATELPCHHYFHKPCVSIWLQKSGTCPVCRCMFPPPL
As to B1, the binding entry is “binds”.
